# Experimental data: patent US7041458B2, “Methods and reagents for determining protein S” (priority 1996, dated 2006)
# Protein sequences, listed by entry. Tags and fused reporters are not part of them. Lines headed by an entry give the natural chain unless they say otherwise; changes in a name come on top.
# UniProt P04003: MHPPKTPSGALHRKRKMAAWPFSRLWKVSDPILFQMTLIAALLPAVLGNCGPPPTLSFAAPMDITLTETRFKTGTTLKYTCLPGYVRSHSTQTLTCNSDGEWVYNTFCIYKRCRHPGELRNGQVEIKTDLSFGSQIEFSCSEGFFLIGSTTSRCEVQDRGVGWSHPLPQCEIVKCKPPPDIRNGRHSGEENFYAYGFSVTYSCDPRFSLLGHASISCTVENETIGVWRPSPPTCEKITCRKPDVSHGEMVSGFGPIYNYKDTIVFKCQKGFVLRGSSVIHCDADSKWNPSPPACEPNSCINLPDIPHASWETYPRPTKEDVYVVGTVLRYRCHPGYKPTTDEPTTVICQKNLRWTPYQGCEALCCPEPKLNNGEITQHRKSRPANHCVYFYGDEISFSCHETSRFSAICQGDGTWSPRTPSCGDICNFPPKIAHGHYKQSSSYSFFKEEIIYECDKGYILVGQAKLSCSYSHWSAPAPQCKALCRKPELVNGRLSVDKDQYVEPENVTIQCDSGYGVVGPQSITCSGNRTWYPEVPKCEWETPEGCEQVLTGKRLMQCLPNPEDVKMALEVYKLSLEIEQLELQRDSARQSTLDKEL
# UniProt P20851: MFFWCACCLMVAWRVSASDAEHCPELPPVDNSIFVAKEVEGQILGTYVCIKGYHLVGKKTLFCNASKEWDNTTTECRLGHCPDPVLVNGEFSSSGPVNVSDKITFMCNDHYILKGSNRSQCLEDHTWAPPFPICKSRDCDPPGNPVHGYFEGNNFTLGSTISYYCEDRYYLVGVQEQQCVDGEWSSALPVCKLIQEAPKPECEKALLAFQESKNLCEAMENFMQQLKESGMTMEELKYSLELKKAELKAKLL
# Results are given in words; binding and its absence hold for the method and conditions named. Some results given as binding are weak or reduced against the parent protein; the word gives no strength.
# Target: T1, C4b-binding protein (C4BP), species containing the protein S binding β-chain, purified from human plasma (human) (UniProt P04003+P20851)
# Test: competition, equilibrium binding in microtiter wells: peptide against a trace of 125I-labelled human protein S on immobilised C4BP, TBS with 10 mM EDTA, 4 °C overnight, gamma counting
row,Binder,binding
1,LVTVEKGSYYPGSGIAQFHIDYNNVSSAEGWHVN [SL7 synthetic peptide (protein S residues 435-468)],binds
2,EKGSYYPGSGIAQFHIDYNNVS [SL2 synthetic peptide (protein S residues 439-460)],binds
3,SGIAQFHIDYNNVSSAEGWHVN [SL6 synthetic peptide (protein S residues 447-468)],binds

# Target: T1, C4b-binding protein (C4BP), species containing the protein S binding β-chain, purified from human plasma (human)
# Test: SPR (BIAcore) competition: 50 nM human protein S mixed with peptide, flowed over immobilised C4BP (8000 RU), HC buffer; percent protein S bound calculated from the response
row,Binder,binding
1,LVTVEKGSYYPGSGIAQFHIDYNNVSSAEGWHVN [SL7 synthetic peptide (protein S residues 435-468)],binds
2,EKGSYYPGSGIAQFHIDYNNVS [SL2 synthetic peptide (protein S residues 439-460)],binds
3,SGIAQFHIDYNNVSSAEGWHVN [SL6 synthetic peptide (protein S residues 447-468)],binds
